From ChEMBL document CHEMBL3988442, “University of Dundee, Small-Polar-MMV Screening Library” (2021).

Sequences of proteins named here, by UniProt entry; tags and fusion partners are left off. Residues count along the entry.
UniProt P9WPC5, whole entry: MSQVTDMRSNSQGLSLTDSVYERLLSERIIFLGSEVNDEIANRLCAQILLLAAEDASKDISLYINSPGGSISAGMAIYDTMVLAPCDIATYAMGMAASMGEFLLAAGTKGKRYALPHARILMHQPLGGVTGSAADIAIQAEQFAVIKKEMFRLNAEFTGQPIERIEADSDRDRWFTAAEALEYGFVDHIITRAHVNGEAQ
UniProt P9WPC3, whole entry partner: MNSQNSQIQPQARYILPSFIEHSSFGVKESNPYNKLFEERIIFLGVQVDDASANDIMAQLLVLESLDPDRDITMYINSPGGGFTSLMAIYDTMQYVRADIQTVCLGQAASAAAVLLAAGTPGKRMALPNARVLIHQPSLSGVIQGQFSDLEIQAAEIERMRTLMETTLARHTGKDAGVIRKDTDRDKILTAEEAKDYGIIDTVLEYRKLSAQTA
UniProt A4I591, 1-473: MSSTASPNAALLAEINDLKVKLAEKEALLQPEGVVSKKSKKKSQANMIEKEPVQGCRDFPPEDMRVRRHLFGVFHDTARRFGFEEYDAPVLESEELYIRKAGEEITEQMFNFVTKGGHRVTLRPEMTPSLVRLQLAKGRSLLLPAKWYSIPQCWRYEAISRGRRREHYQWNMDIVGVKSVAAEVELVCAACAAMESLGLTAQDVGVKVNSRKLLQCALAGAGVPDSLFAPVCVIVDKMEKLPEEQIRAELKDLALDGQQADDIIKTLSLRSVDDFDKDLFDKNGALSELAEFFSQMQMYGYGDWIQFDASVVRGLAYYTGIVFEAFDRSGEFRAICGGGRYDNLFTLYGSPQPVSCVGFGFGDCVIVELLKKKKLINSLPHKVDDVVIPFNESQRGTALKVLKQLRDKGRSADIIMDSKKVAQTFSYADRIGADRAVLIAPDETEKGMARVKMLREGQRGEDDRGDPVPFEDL

ClpP1P2: 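ClpP1P2, Mycobacterium tuberculosis (UniProt P9WPC5 and UniProt P9WPC3). Protease assay of ClpP1P2, read by the AMC dye that it sets free. Concentration: 50 µM. Higher reads as stronger inhibition, judged from the few compounds that gave an IC50. Most other retested compounds had strongly negative values. Size under these conditions: about 69,000 compounds, about 10 of them at 50% or above in at least one test.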
LiHisRS: 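Histidine-tRNA ligase, Leishmania infantum (UniProt A4I591). Enzyme assay of histidyl-tRNA synthetase; the read-out is not stated. Concentration: 30 µM. Higher reads as stronger inhibition (inferred: compounds with an IC50 in retests scored well above the rest). The assay is labelled LdHisRS but filed under L. infantum. Size under these conditions: about 69,000 compounds, about 410 of them at 50% or above in at least one test.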

Values are the deposited “Percent Effect”, in %.
How 0% and 100% were set is not recorded. Most values in the screen are low, and negative values occur.
The compounds are a random part of those screened.

Compound	ClpP1P2	LiHisRS
COC(=O)C1CCCCN1C(=O)c1ccccc1F (configuration not stated)	-2.293	3.665
CS(=O)(=O)CCCC(=O)Nc1cc(Cl)c(Cl)cn1	0.963	16.24
COCCNc1cc(C2CCCNC2)ccn1 (configuration not stated)	-10.7	12.95
Cc1ccnn1CCC(=O)N1C[C@@H](O)[C@H](Oc2cccc(F)c2)C1	-4.25	3.158
CCNc1cc2c(nn1)CCN(C(=O)c1cc(C)n(C3CC3)c1C)C2	-19.4	7.826
CC(C)c1ccc(CN2CCCC3(CC2)CN(C)C(=O)O3)cc1 (configuration not stated)	-11.9	28.32
O=C(NCC(O)c1cccc(F)c1)C1CCN(C(=O)C2CCC2)CC1 (configuration not stated)	-3.938	13.73
COc1c(C)cnc(CN2CCOC(Cn3cc(C)cn3)C2)c1C (configuration not stated)	-27.07	1.695
CCN1CCCN(c2ncccc2C(=O)N2CCCCC2)CC1	0.6205	9.677
CCn1cc(NC(=O)C2CCN(CC(=O)NC(C)(C)CC)CC2)cn1	-14.82	9.821
OC[C@H]1CN(Cc2c(Cl)cncc2Cl)C[C@H]1CN1CCCC1	-14.65	25
CCCn1cc(CN2CCC(c3[nH]ncc3S(C)(=O)=O)C2)cn1 (configuration not stated)	-6.648	18.84
Cc1ccc(O)c(C(=O)N2CCC3(CCCNC3)C2)c1 (configuration not stated)	-7.39	13.33
OC(CN1CCOCC1)c1ccc(Br)cc1 (configuration not stated)	-10.26	10.71
Cc1cc(Cc2ccc(S(=O)(=O)N3CCOCC3)cc2)c(=O)[nH]n1	-7.288	2.597
CCCN(CC)C(=O)c1cc(Cn2c(C)nc3ccccc32)[nH]n1	-1.523	12.59
COCCc1noc(CN2CCCC(Cn3cncn3)C2)n1 (configuration not stated)	-3.336	3.509
CCS(=O)(=O)N1CCCC2(COCCN(c3nnc(C)o3)C2)C1 (configuration not stated)	0.7816	7.895
Cc1ccc(NC(=O)C2CCc3ccccc3N2)cc1 (configuration not stated)	11.7	10.96
CN1CCN(S(=O)(=O)c2ccc(Sc3nccn3C)nc2)CC1	16.27	-3.371
O=C(c1cscn1)N1CCC2(CCCN(CCOc3ccccc3)C2)C1 (configuration not stated)	3.617	19.27
CC(=O)N1CCN(C(=O)CN2CCCC2c2c(C)nn(C)c2C)CC1 (configuration not stated)	-11.54	15.04
O=C(O)CC(NC(=O)CCCc1cccs1)c1ccc(F)cc1 (configuration not stated)	-6.706	8.85
COc1ncccc1C(=O)N1CC[C@H]2C[C@H](c3nnc(C)[nH]3)O[C@@H]2C1	-11.82	28.21
CCOc1ccc(Cl)c(C(=O)N2CCCC(c3ccn[nH]3)C2)n1 (configuration not stated)	-4.851	9.375
Cc1ccc(N2CCN(C(=O)C3CN(C)C(=O)N3)CC2=O)cc1 (configuration not stated)	-4.597	11.9
O=C(CN1CCc2ccccc2C1)NCc1cc2n(n1)CCCNC2	1.982	8.333
O=C(NC1CC1)c1nc(COc2ccc3c(c2)OCO3)no1	-20.96	9.783
OCc1csc(N2C[C@@H](CN3CCCCCC3)[C@@H](CO)C2)n1	-23.17	17.65
CCN1N=C(C(=O)N2CCCC(c3nc(C)cs3)C2)CCC1=O (configuration not stated)	1.471	13.91
c1cc(CN2CCSC3(CCCCC3)C2)no1	1.472	15.08
CN(Cc1nnc2n1CCC2)C(=O)c1ccc2c(c1)OCCO2	2.675	-0.8772
CC(C)c1noc(CCCC(=O)NCC2CCS(=O)(=O)C2)n1 (configuration not stated)	-10.68	8.929
CC(C)C(C)NC(=O)CN1CCSCC1 (configuration not stated)	-0.2112	24.66
Cc1nnsc1CN1C[C@@H]2CC[C@H](C1)N(Cc1ccccc1)C2	-10.79	8.333
Cc1ccccc1C(C(=O)NCCSC(C)C)N(C)C (configuration not stated)	5.505	14.29
CN(C)C(=O)CN1CCO[C@H]2CN(Cc3ccoc3)C[C@H]21	-13.22	17.12
CCc1ccc(C(N)c2cccc(S(C)(=O)=O)c2)cc1 (configuration not stated)	-24.07	7.143
CN(CC1(CO)CCCC1)c1nc2c(c(=O)[nH]1)Cc1ccccc1OC2	-12.51	12.4
Cc1cccc(CN2C[C@@H]3CN(C(=O)C4CC=CC4)C[C@@H]3C2=O)n1	-1.07	3.846
N[C@H]1CCCN(S(=O)(=O)c2ccc(C(=O)NCC(F)F)cc2)C1	-3.236	16.81
FC(F)(F)c1ccnc(N2CCCOCC2)c1	0.5596	5
O=C1NCC(C(=O)N(Cc2cccc(Br)c2)C2CC2)N1 (configuration not stated)	-0.0176	3.226
CC(OCC1CC1)C(=O)NCCC(=O)Nc1ccccn1 (configuration not stated)	-6.32	11.67
Clc1cccc2c3c([nH]c12)CCN(Cc1cc2n(n1)CCCNC2)C3	3.518	19.67
Cc1nsc(N2CCCN(CC(=O)N(C)C3CC3)CC2)n1	-5.589	3.54
O=C(CCc1cccc(Cl)c1)NS(=O)(=O)Cc1ccon1	-3.599	7.895
COc1cc(C)sc1C(=O)NCCC(=O)N(C)c1ccccc1	-5.808	9.091
Cc1nc(C)n(CCCNC(=O)C(C)n2ccnc2C(C)C)n1 (configuration not stated)	-5.164	12.68
Cc1cnc(C(=O)N2CCc3c(nc(-c4ccncc4)[nH]c3=O)C2)cn1	-3.069	20.55
Cc1noc(C)c1CN(C)C(=O)COc1cccc(C#N)c1	6.093	12.82
Cc1nn(C)c2c(N(C)Cc3ccco3)nc(C3CC3)nc12	10.47	7.143
O=C(CS(=O)(=O)c1cccc[n+]1[O-])NC1CCCc2ccccc21 (configuration not stated)	-10.92	21.92
CC(NC(=O)Nc1ccc(F)c(F)c1)c1nc[nH]n1 (configuration not stated)	-16.04	8.197

Repeated from the top, 6 entries:

| Compound | ClpP1P2 | LiHisRS |
|---|---|---|
| `COC(=O)C1CCCCN1C(=O)c1ccccc1F` (configuration not stated) | -2.293 | 3.665 |
| `CS(=O)(=O)CCCC(=O)Nc1cc(Cl)c(Cl)cn1` | 0.963 | 16.24 |
| `COCCNc1cc(C2CCCNC2)ccn1` (configuration not stated) | -10.7 | 12.95 |
| `Cc1ccnn1CCC(=O)N1C[C@@H](O)[C@H](Oc2cccc(F)c2)C1` | -4.25 | 3.158 |
| `CCNc1cc2c(nn1)CCN(C(=O)c1cc(C)n(C3CC3)c1C)C2` | -19.4 | 7.826 |
| `CC(C)c1ccc(CN2CCCC3(CC2)CN(C)C(=O)O3)cc1` (configuration not stated) | -11.9 | 28.32 |